From the supplement of paper PMC10338343
± gives the standard deviation. The list shows a part of the results, in another mix than the full data. Many of these values have a large error. The list shows a part of the results.

Assays:
[1] = tested on: MILI (PIWIL2) piRISC loaded with L1MC piRNA (26 nt); assay: pre-steady-state target cleavage rate (min^-1); higher = faster piRNA-guided slicing of the target; settings: guide: L1MC piRNA 5'p-UAACUAAAUACUAUGCAAGCUGUAGG;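 further: 1 nM active piRISC with 0.1 nM target library at 33 °C single turnover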
How it was run: (§1)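 In HEPES–potassium acetate buffer at 33 °C, […] transcribed, DNA-blocked target RNA library was mixed with 1 nM active affinity-purified piRISC carrying one synthetic guide, with or without 500 nM GTSF1 partner protein, for 0–8 or 0–960 min. Uncleaved targets were sequenced and normalised to depth and to weakly complementary targets; three trials were pooled and k3 was capped at 0.0001 min^-1. The pre-steady-state cleavage rate followed from a burst-and-steady-state fit.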

[2] = tested on: EfPiwi piRISC loaded with L1MC piRNA (26 nt); assay: pre-steady-state target cleavage rate (min^-1); guide: L1MC piRNA 5'p-UAACUAAAUACUAUGCAAGCUGUAGG; MIWI and MILI are mouse PIWI proteins and EfPiwi is from a freshwater sponge; tags in brackets are library labels; higher = faster piRNA-guided slicing of the target
How it was run: as §1

[3] = auxiliary factor: 500 nM mouse GTSF1
[4] = auxiliary factor: none (no GTSF1)
[5] = auxiliary factor: 500 nM Ephydatia muelleri Gtsf1
[6] = auxiliary factor: none (no Gtsf1)

| Sequence | pre-steady-state target cleavage rate [1, 3] | pre-steady-state target cleavage rate [1, 4] | pre-steady-state target cleavage rate [2, 5] | pre-steady-state target cleavage rate [2, 6] |
| --- | --- | --- | --- | --- |
| UCCUCCUACAGCUUCAUAGUAUUUAGUUA | 0.238 ± 0.013 | 0.0049 ± 0.002 | 0.0399 ± 0.015 | – |
| UCCUGGAUGAGCUUGCAUAGUAUUUAGUA | 0.223 ± 0.025 | 0.00747 ± 0.0025 | 0.00405 ± 0.0032 | – |
| UCCUGCUACAGCUUGCAUAGCAUUUAGUUA | 0.141 ± 0.022 | 0.00237 ± 0.0028 | – | 0.000658 ± 0.0073 |
| UCCUCGUACAGCUUGCAUAGUAAUUAGUUA | 0.283 ± 0.017 | 0.00698 ± 0.0019 | 0.111 ± 0.033 | – |
| UCCUGGAUUAGCUUGCAUAGUAUUUAGUUA | 0.232 ± 0.016 | 0.00961 ± 0.0024 | 0.0447 ± 0.011 | – |
| UCCUGCUACAGCUUGCAUACUAUUAAGUUA | 0.0719 ± 0.018 | 0.00141 ± 0.0043 | – | 0.000126 ± 0.03 |
| UCCUCCUACAGGUUGCAUAGUAUUUAGAUA | 0.123 ± 0.017 | 0.0018 ± 0.0031 | 0.00362 ± 0.00095 | – |
| UCCUGGAUGAGCUUGGAUAGUAAUUAGUUA | 0.1 ± 0.02 | 0.00311 ± 0.0026 | 0.00302 ± 0.0021 | – |
| UCCUCCUUGAGCUUGCAUAGUAUUUACAAA | 0.0856 ± 0.023 | 0.00119 ± 0.0045 | 0.00316 ± 0.0022 | – |
| UCCUGGAUCAAGCUUGCAUAGUAUUUAGUUA | 0.237 ± 0.018 | 0.0103 ± 0.0028 | 0.0542 ± 0.012 | – |
| UCCUCCUACAGCUUGCUUAGUUUUUAGUUA | 0.0513 ± 0.01 | 0.00379 ± 0.0023 | – | 0.0017 ± 0.0059 |
| UCCUGCUAGAGCUUGCAUAGUAAUUAGUUA | 0.19 ± 0.02 | 0.00448 ± 0.0023 | 0.00471 ± 0.0019 | – |
| UCCUGGUACUGCUUGCAUAGUAUUUAGUAA | 0.0986 ± 0.018 | 0.00264 ± 0.0037 | 0.00428 ± 0.0018 | – |
| UCCUGGAUCAGCUUGCAUAGUUAUUAGUAA | 0.00826 ± 0.0047 | 0.00216 ± 0.0026 | 0.00246 ± 0.0032 | – |
| UCCUCCUACAGCUUGCAUAGUAAUUAGUUA | 0.275 ± 0.022 | 0.00666 ± 0.0023 | 0.0117 ± 0.0045 | – |
| UCCUGGAUGAGCUUGCUUAGUAUUUAGAUA | 0.128 ± 0.02 | 0.00238 ± 0.0031 | 0.00382 ± 0.0029 | – |
| UCCUCCUACAGCUUGAAUAGUAUUUAGUUA | 0.283 ± 0.015 | 0.00723 ± 0.002 | 0.0651 ± 0.017 | – |
| UCCUGGUACGGCUUGCAUAGUAUUUAGUUA | 0.195 ± 0.03 | 0.0133 ± 0.0047 | 0.00921 ± 0.0043 | – |
| UCCUGGAUGUCGAACGUAAGUAUUUAUUA | 0.00019 ± 0.036 | 0.000159 ± 0.036 | – | < 0.0001 |
| UCCUCCUUCAGCUUGCAUAGUAUUUUGUUA | 0.139 ± 0.021 | 0.00287 ± 0.002 | 0.00463 ± 0.0027 | – |
| UCCUGGAACAGCUGUGCAUAGUAUUUAGUUA | 0.206 ± 0.015 | 0.00954 ± 0.0024 | 0.00999 ± 0.0023 | – |
| UCCUGGAUCAGCUUGCAUACUAUUUAGAAA | 0.0141 ± 0.0069 | 0.000758 ± 0.0067 | 0.00139 ± 0.0041 | – |
| UCCUCCUACAGCUUGCAUAGUAAUUACUUA | 0.0937 ± 0.025 | 0.00237 ± 0.0034 | 0.005 ± 0.0027 | – |
| UCCUGCAACUGCUUGCAUAGUAUUUAGUUA | 0.322 ± 0.025 | 0.00581 ± 0.0026 | 0.0198 ± 0.0044 | – |

Full records, quoted from the list.
UCCUCCUACAGGUUGCAUAGUAUUUAGAUA is entered as pre-steady-state target cleavage rate [1, 3] = 0.123 ± 0.017; pre-steady-state target cleavage rate [1, 4] = 0.0018 ± 0.0031; pre-steady-state target cleavage rate [2, 5] = 0.00362 ± 0.00095
UCCUGCUAGAGCUUGCAUAGUAAUUAGUUA is entered as pre-steady-state target cleavage rate [1, 3] = 0.19 ± 0.02; pre-steady-state target cleavage rate [1, 4] = 0.00448 ± 0.0023; pre-steady-state target cleavage rate [2, 5] = 0.00471 ± 0.0019

Additional records follow.

| Sequence | pre-steady-state target cleavage rate [1, 3] | pre-steady-state target cleavage rate [1, 4] | pre-steady-state target cleavage rate [2, 5] | pre-steady-state target cleavage rate [2, 6] |
| --- | --- | --- | --- | --- |
| UCCUGGAUCAGCUUGCAUAGUAUAAAGUUA | 0.171 ± 0.018 | 0.00561 ± 0.0029 | 0.00752 ± 0.0027 | – |
| UCCUGGUACAGCUUUGCAUAGUAUUUAGUUA | 0.185 ± 0.018 | 0.0164 ± 0.0048 | 0.00974 ± 0.0035 | – |
| UCCUGGAUGUGCUUGCAUAGUGUUUAGUUA | 0.0653 ± 0.013 | 0.00396 ± 0.0032 | 0.0123 ± 0.0051 | – |
| UCCUGGAACAGCUUGCAUUCUAUUUAGUUA | 0.0609 ± 0.014 | 0.00151 ± 0.0041 | 0.000684 ± 0.006 | – |
| UCCUCCUACAGAUUGCAUAGUAUUUAGUUA | 0.236 ± 0.014 | 0.00814 ± 0.0018 | 0.0555 ± 0.014 | – |
| UCCUCCUACAGCUUGCAUAGUCUUUAGUUA | 0.198 ± 0.023 | 0.00522 ± 0.0021 | 0.0068 ± 0.0025 | – |
| UCCUGGAACAGACUUGCAUAGUAUUUAGUUA | 0.217 ± 0.014 | 0.00682 ± 0.0024 | 0.0135 ± 0.0042 | – |
| UCCUCCUACAGCUUGCAUACGUAUUUAGUUA | 0.00561 ± 0.0046 | 0.00122 ± 0.0046 | – | 0.000123 ± 0.042 |
| UCCUGGAUCAGCUUGCAUAGUAAAUAGUUA | 0.171 ± 0.024 | 0.00496 ± 0.0026 | – | 0.0029 ± 0.0047 |
| UCCUCCUACUGCUUGCAAAGUAUUUAGUUA | 0.138 ± 0.011 | 0.00644 ± 0.0018 | 0.0558 ± 0.017 | – |
| UCCUCCUACAGCAUGCAUUGUAUUUAGUUA | 0.217 ± 0.015 | 0.0102 ± 0.0027 | 0.0134 ± 0.0043 | – |
| UCCUGGUACAGCUUGCAUAGUAAUUACUUA | 0.00729 ± 0.0052 | 0.00166 ± 0.0054 | 0.00196 ± 0.0047 | – |
| UCCUGGAUCAGCUUGCAUUCUAUUUAGUUA | 0.0266 ± 0.0066 | 0.00119 ± 0.0045 | 0.00166 ± 0.0032 | – |
| UCCUGGAACGCUUGCAUAGUAUUUAGUUA | 0.239 ± 0.015 | 0.00644 ± 0.0019 | 0.0259 ± 0.0076 | – |
| UCCUGGAUGUGCUUGUAUAGUAUUUAGUUA | 0.142 ± 0.017 | 0.0136 ± 0.004 | 0.0218 ± 0.0071 | – |
| UCCUGGAUCAGCUAGCAAAGUAUUUAGUUA | 0.0976 ± 0.012 | 0.00566 ± 0.0019 | 0.00308 ± 0.0029 | – |
| UCCUGGAUGAGCUUGCAUAGUAUUUCAGUUA | 0.207 ± 0.048 | 0.00415 ± 0.0028 | 0.00264 ± 0.0023 | – |
| UCCUGGAAAGCUUGCAUAGUAUUUAGUUA | 0.276 ± 0.016 | 0.00624 ± 0.0022 | 0.035 ± 0.0098 | – |
| UCCUCCUACAGCUUGCAUAGUUAUUAGUUA | 0.0492 ± 0.015 | 0.00242 ± 0.0032 | 0.0094 ± 0.0036 | – |
| UCCUCGUACAGCUUGCAUAGUAUUUUGUUA | 0.143 ± 0.016 | 0.00289 ± 0.0028 | 0.007 ± 0.0031 | – |
| UCCUGGUACUGCUUGGAUAGUAUUUAGUUA | 0.179 ± 0.029 | 0.00767 ± 0.0042 | 0.00193 ± 0.0052 | – |
| UCCUGGUUCAGCUAGCAUAGUAUUUAGUUA | 0.239 ± 0.026 | 0.0116 ± 0.0027 | 0.0263 ± 0.0083 | – |
| UCCUGGUACAGCUUGCAUAGUAUUUAGUUA [g2:g24:cont:t1A] | 0.277 ± 0.018 | 0.0215 ± 0.0056 | 0.0865 ± 0.024 | – |
